Source: the supplement of paper PMC8728848
The other results are listed elsewhere or left out.

Tests used:
Assay in all cases: glycan array binding signal (z-score within array); higher = stronger binding
Conditions in all cases: glycan notation: IUPAC condensed, linker removed
[1] = target: Gal(b1-4)GlcNAc(b1-2)[Gal(b1-4)GlcNAc(b1-4)]Man(a1-3)[Gal(b1-4)GlcNAc(b1-2)Man(a1-6)]Man(b1-4)GlcNAc(b1-4)GlcNAc
Outline: (§1)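 From the Consortium for Functional Glycomics database, 3228 arrays were curated, keeping only those whose protein sequence was available. Binding is given as a within-array Z-score averaged across arrays sharing a protein sequence and across linkers. Negative Z-scores can be read as non-binding.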

[2] = target: Gal(b1-4)GlcNAc(b1-2)[Gal(b1-4)GlcNAc(b1-4)]Man(a1-3)[Gal(b1-4)GlcNAc(b1-2)[Gal(b1-4)GlcNAc(b1-6)]Man(a1-6)]Man(b1-4)GlcNAc(b1-4)GlcNAc
Outline: as §1

[3] = target: Gal(b1-4)GlcNAc(b1-2)[Gal(b1-4)GlcNAc(b1-4)]Man(a1-3)[GlcNAc(b1-4)][Gal(b1-4)GlcNAc(b1-2)Man(a1-6)]Man(b1-4)GlcNAc(b1-4)GlcNAc
Outline: as §1

[4] = target: Gal(b1-4)GlcNAc(b1-2)[Gal(b1-4)GlcNAc(b1-4)]Man(a1-3)[GlcNAc(b1-4)][Gal(b1-4)GlcNAc(b1-2)[Gal(b1-4)GlcNAc(b1-6)]Man(a1-6)]Man(b1-4)GlcNAc(b1-4)GlcNAc
Outline: as §1

[5] = target: Gal(b1-4)GlcNAc(b1-2)[Gal(b1-4)GlcNAc(b1-6)]Man(a1-6)[Gal(b1-4)GlcNAc(b1-2)Man(a1-3)]Man(b1-4)GlcNAc(b1-4)GlcNAc
Outline: as §1

[6] = target: Gal(b1-4)GlcNAc(b1-2)[Gal(b1-4)GlcNAc(b1-6)]Man(a1-6)[Gal(b1-4)GlcNAc(b1-2)Man(a1-3)]Man(b1-4)GlcNAc(b1-4)[Fuc(a1-6)]GlcNAc
Outline: as §1

[7] = target: Gal(b1-4)GlcNAc(b1-2)[Gal(b1-4)GlcNAc(b1-6)]Man(a1-6)[GlcNAc(b1-4)][Gal(b1-4)GlcNAc(b1-2)Man(a1-3)]Man(b1-4)GlcNAc(b1-4)GlcNAc
Outline: as §1

[8] = target: Gal(b1-4)GlcNAc(b1-2)[Gal(b1-4)GlcNAc(b1-6)]Man(a1-6)[GlcNAc(b1-4)][Gal(b1-4)GlcNAc(b1-2)[Gal(b1-4)GlcNAc(b1-4)]Man(a1-3)]Man(b1-4)GlcNAc(b1-4)[Fuc(a1-6)]GlcNAc
Outline: as §1

[9] = target: Gal(b1-4)GlcNAc(b1-3)Gal(b1-3)GalNAc
Outline: as §1

[10] = target: Gal(b1-4)GlcNAc(b1-3)Gal(b1-3)GlcNAc
Outline: as §1

[11] = target: Gal(b1-4)GlcNAc(b1-3)Gal(b1-4)Glc
Outline: as §1

[12] = target: Gal(b1-4)GlcNAc(b1-3)Gal(b1-4)GlcNAc
Outline: as §1

[13] = target: Gal(b1-4)GlcNAc(b1-3)Gal(b1-4)GlcNAc(b1-2)Man(a1-3)[Gal(b1-4)GlcNAc(b1-3)Gal(b1-4)GlcNAc(b1-2)Man(a1-6)]Man(b1-4)GlcNAc(b1-4)GlcNAc
Outline: as §1

[14] = target: Gal(b1-4)GlcNAc(b1-3)Gal(b1-4)GlcNAc(b1-2)Man(a1-3)[Gal(b1-4)GlcNAc(b1-3)Gal(b1-4)GlcNAc(b1-2)Man(a1-6)]Man(b1-4)GlcNAc(b1-4)[Fuc(a1-6)]GlcNAc
Outline: as §1

[15] = target: Gal(b1-4)GlcNAc(b1-3)Gal(b1-4)GlcNAc(b1-2)[Gal(b1-4)GlcNAc(b1-3)Gal(b1-4)GlcNAc(b1-6)]Man(a1-6)[Gal(b1-4)GlcNAc(b1-3)Gal(b1-4)GlcNAc(b1-2)Man(a1-3)]Man(b1-4)GlcNAc(b1-4)GlcNAc
Outline: as §1

[16] = target: Gal(b1-4)GlcNAc(b1-3)Gal(b1-4)GlcNAc(b1-2)[Gal(b1-4)GlcNAc(b1-3)Gal(b1-4)GlcNAc(b1-6)]Man(a1-6)[Gal(b1-4)GlcNAc(b1-3)Gal(b1-4)GlcNAc(b1-2)Man(a1-3)]Man(b1-4)GlcNAc(b1-4)[Fuc(a1-6)]GlcNAc
Outline: as §1

[17] = target: Gal(b1-4)GlcNAc(b1-3)Gal(b1-4)GlcNAc(b1-3)Gal(b1-4)GlcNAc
Outline: as §1

[18] = target: Gal(b1-4)GlcNAc(b1-3)Gal(b1-4)GlcNAc(b1-3)Gal(b1-4)GlcNAc(b1-2)Man(a1-3)[Gal(b1-4)GlcNAc(b1-3)Gal(b1-4)GlcNAc(b1-3)Gal(b1-4)GlcNAc(b1-2)Man(a1-6)]Man(b1-4)GlcNAc(b1-4)GlcNAc
Outline: as §1

[19] = target: Gal(b1-4)GlcNAc(b1-3)Gal(b1-4)GlcNAc(b1-3)Gal(b1-4)GlcNAc(b1-2)Man(a1-3)[Gal(b1-4)GlcNAc(b1-3)Gal(b1-4)GlcNAc(b1-3)Gal(b1-4)GlcNAc(b1-2)Man(a1-6)]Man(b1-4)GlcNAc(b1-4)[Fuc(a1-6)]GlcNAc
Outline: as §1

[20] = target: Gal(b1-4)GlcNAc(b1-3)Gal(b1-4)GlcNAc(b1-3)Gal(b1-4)GlcNAc(b1-2)[Gal(b1-4)GlcNAc(b1-3)Gal(b1-4)GlcNAc(b1-3)Gal(b1-4)GlcNAc(b1-6)]Man(a1-6)[Gal(b1-4)GlcNAc(b1-3)Gal(b1-4)GlcNAc(b1-3)Gal(b1-4)GlcNAc(b1-2)Man(a1-3)]Man(b1-4)GlcNAc(b1-4)[Fuc(a1-6)]GlcNAc
Outline: as §1

[21] = target: Gal(b1-4)GlcNAc(b1-3)Gal(b1-4)GlcNAc(b1-3)Gal(b1-4)GlcNAc(b1-3)Gal(b1-4)GlcNAc(b1-2)Man(a1-3)[Gal(b1-4)GlcNAc(b1-3)Gal(b1-4)GlcNAc(b1-3)Gal(b1-4)GlcNAc(b1-3)Gal(b1-4)GlcNAc(b1-2)Man(a1-6)]Man(b1-4)GlcNAc(b1-4)GlcNAc
Outline: as §1

[22] = target: Gal(b1-4)GlcNAc(b1-3)Gal(b1-4)GlcNAc(b1-3)Gal(b1-4)GlcNAc(b1-3)Gal(b1-4)GlcNAc(b1-2)Man(a1-3)[Gal(b1-4)GlcNAc(b1-3)Gal(b1-4)GlcNAc(b1-3)Gal(b1-4)GlcNAc(b1-3)Gal(b1-4)GlcNAc(b1-2)Man(a1-6)]Man(b1-4)GlcNAc(b1-4)[Fuc(a1-6)]GlcNAc
Outline: as §1

[23] = target: Gal(b1-4)GlcNAc(b1-3)Gal(b1-4)GlcNAc(b1-3)Gal(b1-4)GlcNAc(b1-3)Gal(b1-4)GlcNAc(b1-2)[Gal(b1-4)GlcNAc(b1-3)Gal(b1-4)GlcNAc(b1-3)Gal(b1-4)GlcNAc(b1-3)Gal(b1-4)GlcNAc(b1-6)]Man(a1-6)[Gal(b1-4)GlcNAc(b1-3)Gal(b1-4)GlcNAc(b1-3)Gal(b1-4)GlcNAc(b1-3)Gal(b1-4)GlcNAc(b1-2)Man(a1-3)]Man(b1-4)GlcNAc(b1-4)[Fuc(a1-6)]GlcNAc
Outline: as §1

[24] = target: Gal(b1-4)GlcNAc(b1-3)Gal(b1-4)GlcNAc(b1-3)Gal(b1-4)GlcNAc(b1-3)Gal(b1-4)GlcNAc(b1-3)Gal(b1-4)GlcNAc(b1-2)Man(a1-3)[Gal(b1-4)GlcNAc(b1-3)Gal(b1-4)GlcNAc(b1-3)Gal(b1-4)GlcNAc(b1-3)Gal(b1-4)GlcNAc(b1-3)Gal(b1-4)GlcNAc(b1-2)Man(a1-6)]Man(b1-4)GlcNAc(b1-4)GlcNAc
Outline: as §1

[25] = target: Gal(b1-4)GlcNAc(b1-3)Gal(b1-4)GlcNAc(b1-3)Gal(b1-4)GlcNAc(b1-3)Gal(b1-4)GlcNAc(b1-3)Gal(b1-4)GlcNAc(b1-2)Man(a1-3)[Gal(b1-4)GlcNAc(b1-3)Gal(b1-4)GlcNAc(b1-3)Gal(b1-4)GlcNAc(b1-3)Gal(b1-4)GlcNAc(b1-3)Gal(b1-4)GlcNAc(b1-2)Man(a1-6)]Man(b1-4)GlcNAc(b1-4)[Fuc(a1-6)]GlcNAc
Outline: as §1

[26] = target: Gal(b1-4)GlcNAc(b1-3)Gal(b1-4)GlcNAc(b1-3)Gal(b1-4)GlcNAc(b1-3)Gal(b1-4)GlcNAc(b1-3)Gal(b1-4)GlcNAc(b1-2)[Gal(b1-4)GlcNAc(b1-3)Gal(b1-4)GlcNAc(b1-3)Gal(b1-4)GlcNAc(b1-3)Gal(b1-4)GlcNAc(b1-3)Gal(b1-4)GlcNAc(b1-6)]Man(a1-6)[Gal(b1-4)GlcNAc(b1-3)Gal(b1-4)GlcNAc(b1-3)Gal(b1-4)GlcNAc(b1-3)Gal(b1-4)GlcNAc(b1-3)Gal(b1-4)GlcNAc(b1-2)Man(a1-3)]Man(b1-4)GlcNAc(b1-4)[Fuc(a1-6)]GlcNAc
Outline: as §1

[27] = target: Gal(b1-4)GlcNAc(b1-3)Gal(b1-4)GlcNAc(b1-3)Gal(b1-4)GlcNAc(b1-3)Gal(b1-4)GlcNAc(b1-3)Gal(b1-4)GlcNAc(b1-3)Gal(b1-4)GlcNAc(b1-2)Man(a1-3)[Gal(b1-4)GlcNAc(b1-3)Gal(b1-4)GlcNAc(b1-3)Gal(b1-4)GlcNAc(b1-3)Gal(b1-4)GlcNAc(b1-3)Gal(b1-4)GlcNAc(b1-3)Gal(b1-4)GlcNAc(b1-2)Man(a1-6)]Man(b1-4)GlcNAc(b1-4)GlcNAc
Outline: as §1

[28] = target: Gal(b1-4)GlcNAc(b1-3)Gal(b1-4)GlcNAc(b1-3)GalNAc
Outline: as §1

[29] = target: Gal(b1-4)GlcNAc(b1-3)Gal(b1-4)GlcNAc(b1-3)[Gal(b1-4)GlcNAc(b1-3)Gal(b1-4)GlcNAc(b1-6)]GalNAc
Outline: as §1

[30] = target: Gal(b1-4)GlcNAc(b1-3)Gal(b1-4)GlcNAc(b1-6)[Gal(b1-3)]GalNAc
Outline: as §1

[31] = target: Gal(b1-4)GlcNAc(b1-3)Gal(b1-4)[Fuc(a1-3)]GlcNAc(b1-3)Gal(b1-4)[Fuc(a1-3)]GlcNAc
Outline: as §1

[32] = target: Gal(b1-4)GlcNAc(b1-3)GalNAc
Outline: as §1

[33] = target: Gal(b1-4)GlcNAc(b1-3)[Fuc(a1-3)GlcNAc(b1-6)]Gal(b1-4)Glc
Outline: as §1

[34] = target: Gal(b1-4)GlcNAc(b1-3)[Gal(b1-4)GlcNAc(b1-6)]Gal(b1-4)GlcNAc
Outline: as §1

[35] = target: Gal(b1-4)GlcNAc(b1-3)[GlcNAc(b1-6)]Gal(b1-4)GlcNAc
Outline: as §1

[36] = target: Gal(b1-4)GlcNAc(b1-6)Gal(b1-4)GlcNAc
Outline: as §1

[37] = target: Gal(b1-4)GlcNAc(b1-6)GalNAc
Outline: as §1

B1: FliC (Clostridium difficile) (protein)
chain: MRVNTNVSALIANNQMGRNVNGQSKSMEKLSSGVRIKRAADDAAGLAISEKMRAQIKGLDQAGRNVQDGISVVQTAEGSLEETGNILQRMRTLSLQSANEINNTEEREKIADELTQLKDEIERISSSTEFNGKKLLDGTSSTIRLQVGASYGTNVSGTSNNNNEIKIQLVNTASIMASAGITTASIGSMKAGGTTGTDAAKTMVSSLDAALKSLNSSRAKLGAQQNRLESTQNNLNNTLENVTAAESRIRDTDVASEMVNLSKMNILVQASQSMLAQANQQPQGVLQLLG
- glycan array binding signal (z-score) [1]: -0.513
- glycan array binding signal (z-score) [2]: 0.193
- glycan array binding signal (z-score) [3]: -0.113
- glycan array binding signal (z-score) [4]: 0.207
- glycan array binding signal (z-score) [5]: 0.587
- glycan array binding signal (z-score) [6]: 0.28
- glycan array binding signal (z-score) [7]: 0.329
- glycan array binding signal (z-score) [8]: -0.843
- glycan array binding signal (z-score) [9]: 0.009
- glycan array binding signal (z-score) [10]: -0.332
- glycan array binding signal (z-score) [11]: -0.402
- glycan array binding signal (z-score) [12]: -0.721
- glycan array binding signal (z-score) [13]: 0.538
- glycan array binding signal (z-score) [14]: 2.39
- glycan array binding signal (z-score) [15]: -0.22
- glycan array binding signal (z-score) [16]: 0.578
- glycan array binding signal (z-score) [17]: 0.159
- glycan array binding signal (z-score) [18]: 2.15
- glycan array binding signal (z-score) [19]: 0.556
- glycan array binding signal (z-score) [20]: 1.78
- glycan array binding signal (z-score) [21]: 1.3
- glycan array binding signal (z-score) [22]: 0.078
- glycan array binding signal (z-score) [23]: 0.488
- glycan array binding signal (z-score) [24]: -1.06
- glycan array binding signal (z-score) [25]: 0.234
- glycan array binding signal (z-score) [26]: 0.288
- glycan array binding signal (z-score) [27]: 0.205
- glycan array binding signal (z-score) [28]: -0.709
- glycan array binding signal (z-score) [29]: 2.33
- glycan array binding signal (z-score) [30]: 0.062
- glycan array binding signal (z-score) [31]: 1.17
- glycan array binding signal (z-score) [32]: -0.483
- glycan array binding signal (z-score) [33]: -0.626
- glycan array binding signal (z-score) [34]: -0.306
- glycan array binding signal (z-score) [35]: -0.24
- glycan array binding signal (z-score) [36]: -0.574
- glycan array binding signal (z-score) [37]: 0.139
